Source: publication PMC4783006
Read-outs that look alike come from different tables or passages of the source. No constants are given. Whether binding was seen depends on the method and setting. For some of these results: A result given as binding can be weak or reduced; the word gives no strength. For some of these results: Sequences can lack the tags named with a protein. For some of these results: In cells and extracts the contact can be indirect.

Sequences of proteins named here, by UniProt entry; tags and fusion partners are left off. A change or cut given only in a name is not applied to a line headed by its entry.
UniProt Q6K678: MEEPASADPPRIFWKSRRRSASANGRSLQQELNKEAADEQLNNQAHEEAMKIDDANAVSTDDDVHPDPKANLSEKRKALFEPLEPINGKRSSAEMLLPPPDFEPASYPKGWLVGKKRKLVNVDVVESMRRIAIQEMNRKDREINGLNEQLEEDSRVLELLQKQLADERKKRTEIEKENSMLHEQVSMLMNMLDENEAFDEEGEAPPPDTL
UniProt E5RQA1: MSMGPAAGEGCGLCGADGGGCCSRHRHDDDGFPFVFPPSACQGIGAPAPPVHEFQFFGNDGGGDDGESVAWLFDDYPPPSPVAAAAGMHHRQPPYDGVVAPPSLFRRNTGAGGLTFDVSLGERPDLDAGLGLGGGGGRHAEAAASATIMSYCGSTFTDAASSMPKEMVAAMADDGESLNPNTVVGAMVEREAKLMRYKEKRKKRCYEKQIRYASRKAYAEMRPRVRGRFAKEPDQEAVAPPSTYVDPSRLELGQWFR
UniProt Q9FDX8: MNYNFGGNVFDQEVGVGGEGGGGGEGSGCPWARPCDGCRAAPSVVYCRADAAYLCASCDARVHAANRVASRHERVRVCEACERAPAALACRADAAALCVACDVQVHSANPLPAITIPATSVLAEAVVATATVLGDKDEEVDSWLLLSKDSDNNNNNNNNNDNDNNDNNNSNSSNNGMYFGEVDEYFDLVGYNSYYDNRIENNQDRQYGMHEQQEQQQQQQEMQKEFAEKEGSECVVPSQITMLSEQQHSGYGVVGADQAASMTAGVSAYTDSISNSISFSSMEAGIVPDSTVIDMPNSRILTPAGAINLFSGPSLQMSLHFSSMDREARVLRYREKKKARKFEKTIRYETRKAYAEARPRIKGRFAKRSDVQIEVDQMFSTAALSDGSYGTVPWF
UniProt Q93WI9: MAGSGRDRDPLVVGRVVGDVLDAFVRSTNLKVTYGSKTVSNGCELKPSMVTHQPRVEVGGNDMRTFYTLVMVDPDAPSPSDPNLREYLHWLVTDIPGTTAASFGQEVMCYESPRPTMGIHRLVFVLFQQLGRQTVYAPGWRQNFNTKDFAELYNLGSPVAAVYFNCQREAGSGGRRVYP
UniProt Q9XJ60: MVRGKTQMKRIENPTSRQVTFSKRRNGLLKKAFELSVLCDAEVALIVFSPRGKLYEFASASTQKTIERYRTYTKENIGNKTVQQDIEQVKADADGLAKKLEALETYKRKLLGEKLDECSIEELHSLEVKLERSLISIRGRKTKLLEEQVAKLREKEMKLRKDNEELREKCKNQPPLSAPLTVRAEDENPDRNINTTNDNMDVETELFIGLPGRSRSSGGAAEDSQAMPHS
UniProt Q8VWH2: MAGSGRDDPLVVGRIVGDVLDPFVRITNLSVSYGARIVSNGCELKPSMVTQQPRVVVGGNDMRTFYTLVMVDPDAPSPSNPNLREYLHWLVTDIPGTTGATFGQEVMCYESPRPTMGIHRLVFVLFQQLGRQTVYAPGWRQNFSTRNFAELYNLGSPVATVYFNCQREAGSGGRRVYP

Columns and labels:
[1] = molecular target: Heading Date Repressor 1 (HDR1), yeast two-hybrid fusion (rice (Oryza sativa)) (UniProt Q6K678); assay: two-hybrid; direct test; pGADT7 (AD) and pGBKT7 (BD) fusions in S. cerevisiae AH109; spotted on SD lacking leucine, tryptophan, histidine and adenine
[2] = molecular target: Heading Date Repressor 1 (HDR1), yeast two-hybrid fusion (rice (Oryza sativa)) (UniProt Q6K678); assay: as above; remark: listed apart in the source
[3] = molecular target: HDR1, BiFC fusion (pSAT1-nVenus-C-HDR1) (rice (Oryza sativa)); assay: split reporter; BiFC in Arabidopsis protoplasts; nVenus and cCFP fusions; YFP signal in the nuclei
[4] = molecular target: FLAG-HDR1 (rice (Oryza sativa)); assay: co-IP; total protein from leaves of FLAG-HDR1 transgenic and WT rice; anti-FLAG immunoprecipitation; blot with OsK4 antibody

“Ghd7 (Grain number, plant height and heading date 7), yeast two-hybrid fusion (from UniProt E5RQA1 1-257)” was tested, and the binding [1] was “no binding”.

“Heading date 1 (HD1), yeast hybrid fusion (from UniProt Q9FDX8 1-395)” was tested, and the binding [1] was “no binding”.

“Heading date 3a (HD3A), yeast two-hybrid fusion (from UniProt Q93WI9 1-179)” was tested, and the binding [1] was “no binding”.

In the case of “OsMADS50, yeast two-hybrid fusion (from UniProt Q9XJ60 1-230)”, the binding [1] is reported as “no binding”.

In the case of “RICE FLOWERING LOCUS T1 (RFT1), yeast two-hybrid fusion (from UniProt Q8VWH2 1-178)”, the binding [1] is reported as “no binding”.

B1: OsK4, yeast two-hybrid fusion (enzyme, UniProt Q852Q1 1-509)
chain: MEGNARGGGHSEALKNYNLGRTLGIGSFGKVKIAEHKLTGHRVAIKILNRRQMRNMEMEEKAKREIKILRLFIHPHIIRLYEVIYTPTDIYVVMEYCKFGELFDYIVEKGRLQEDEARRIFQQIISGVEYCHRNMVVHRDLKPENLLLDSKYNVKLADFGLSNVMHDGHFLKTSCGSPNYAAPEVISGKLYAGPEVDVWSCGVILYALLCGTLPFDDENIPNLFKKIKGGIYTLPSHLSALARDLIPRMLVVDPMKRITIREIREHQWFQIRLPRYLAVPPPDTAQQAKMIDEDTLQDVVNLGYEKDHVCESLRNRLQNEATVAYYLLLDNRFRATSGYLGADYQESLERNLNRFASSESASSNTRHYLPGSSDPHASGLRPHYPVERKWALGLQSRAQPREIMIEVLKALEDLNVCWKKNGQYNMKCRWSVGYPQATDMLDVNHSFVDDSIIMDNGDVNGRLPAVIKFEIQLYKSRDEKYLLDMQRVTGPQLLFLDFCAAFLTKLRVL
B1 was tested, and the binding [2] was “binds”.

B2: OsK3, yeast two-hybrid fusion (enzyme, UniProt Q852Q0 1-508)
chain: MDGNAKGGGHSEALKNYNLGRTLGIGSFGKVKIAEHKLTGHRVAIKILNRRQMRNMEMEEKAKREIKILRLFIHPHIIRLYEVIYTPTDIYVVMEYCKFGELFDYIVEKGRLQEDEARRIFQQIISGVEYCHRNMVVHRDLKPENLLLDSKYNVKLADFGLSNVMHDGHFLKTSCGSPNYAAPEVISGKLYAGPEVDVWSCGVILYALLCGTLPFDDENIPNLFKKIKGGIYTLPSHLSALARDLIPRMLVVDPMKRITIREIREHQWFQIRLPRYLAVPPPDTAQQAKMIDEDTLQDVVNLGYGKDHVCESLRNRLQNEATVAYYLLLDNRFRATSGYLGADYQESLERNFNRFASSESASSNTRHYLPGSSDPHASGLRPHYPVERKWALGLQSRAQPREIMIEVLKALQDLNVSWKKNGQYNMKCRWSVGTQATDMLDVNNSFVDDSIIMDNGDVNGRLPAVIKFEIQLYKTRDEKYLLDMQRVTGPQLLFLDFCADFLTKLRVL
B2 was tested, and the binding [2] was “binds”.

B3: OsK4, BiFC fusion (pSAT1-cCFP-N-OsK4) (enzyme, UniProt Q852Q1 1-509)
chain: MEGNARGGGHSEALKNYNLGRTLGIGSFGKVKIAEHKLTGHRVAIKILNRRQMRNMEMEEKAKREIKILRLFIHPHIIRLYEVIYTPTDIYVVMEYCKFGELFDYIVEKGRLQEDEARRIFQQIISGVEYCHRNMVVHRDLKPENLLLDSKYNVKLADFGLSNVMHDGHFLKTSCGSPNYAAPEVISGKLYAGPEVDVWSCGVILYALLCGTLPFDDENIPNLFKKIKGGIYTLPSHLSALARDLIPRMLVVDPMKRITIREIREHQWFQIRLPRYLAVPPPDTAQQAKMIDEDTLQDVVNLGYEKDHVCESLRNRLQNEATVAYYLLLDNRFRATSGYLGADYQESLERNLNRFASSESASSNTRHYLPGSSDPHASGLRPHYPVERKWALGLQSRAQPREIMIEVLKALEDLNVCWKKNGQYNMKCRWSVGYPQATDMLDVNHSFVDDSIIMDNGDVNGRLPAVIKFEIQLYKSRDEKYLLDMQRVTGPQLLFLDFCAAFLTKLRVL
B3 was tested, and the binding [3] was “binds”.

B4: OsK4, endogenous in rice leaves (enzyme, UniProt Q852Q1 1-509)
chain: MEGNARGGGHSEALKNYNLGRTLGIGSFGKVKIAEHKLTGHRVAIKILNRRQMRNMEMEEKAKREIKILRLFIHPHIIRLYEVIYTPTDIYVVMEYCKFGELFDYIVEKGRLQEDEARRIFQQIISGVEYCHRNMVVHRDLKPENLLLDSKYNVKLADFGLSNVMHDGHFLKTSCGSPNYAAPEVISGKLYAGPEVDVWSCGVILYALLCGTLPFDDENIPNLFKKIKGGIYTLPSHLSALARDLIPRMLVVDPMKRITIREIREHQWFQIRLPRYLAVPPPDTAQQAKMIDEDTLQDVVNLGYEKDHVCESLRNRLQNEATVAYYLLLDNRFRATSGYLGADYQESLERNLNRFASSESASSNTRHYLPGSSDPHASGLRPHYPVERKWALGLQSRAQPREIMIEVLKALEDLNVCWKKNGQYNMKCRWSVGYPQATDMLDVNHSFVDDSIIMDNGDVNGRLPAVIKFEIQLYKSRDEKYLLDMQRVTGPQLLFLDFCAAFLTKLRVL
With B4 the binding [4] was “binds”.

B5: Early heading date 1 (EHD1), yeast hybrid fusion (protein, UniProt Q7Y0W5 1-341)
chain: MDHRELWPYGLRVLVIDDDCSYLSVMEDLLLKCSYKVTTYKNVREAVPFILDNPQIVDLVISDAFFPTEDGLLILQEVTSKFGIPTVIMASSGDTNTVMKYVANGAFDFLLKPVRIEELSNIWQHIFRKQMQDHKNNNMVGNLEKPGHPPSILAMARATPATTRSTATEASLAPLENEVRDDMVNYNGEITDIRDLGKSRLTWTTQLHRQFIAAVNHLGEDKAVPKKILGIMKVKHLTREQVASHLQKYRMQLKKSIPTTSKHGATLSSTALDKTQDHPSRSQYFNQDGCKEIMDYSLPRDDLSSGSECMLEELNDYSSEGFQDFRWDSDKQEYGPCFWNF
B5 was tested, and the binding [2] was “no binding”.
